No constants are given. Whether binding was seen depends on the method and setting. A result given as binding can be weak or reduced; the word gives no strength. Where a sequence is shown, tags or fusion partners need not be part of it.

Experiment [1] addresses Frizzled-7 (Fzd7) (Xenopus). Description: confocal imaging of mVenus fluorescence on receptor-expressing cells in embryos; mRNA of mV-Wnt6 or secreted mVenus (500 pg) and Fzd7 mRNA (with mRFP) injected into different blastomeres of Xenopus embryos at the four-cell stage; fixed at st.10.5; mVenus intensity compared between Fzd7-expressing and neighbouring cells.
Experiment [2] addresses dominant-negative Fzd7 with mouse IgG transmembrane sequence (dnFzd7-TM) (Xenopus | mouse). Description: confocal imaging of mVenus fluorescence on receptor-expressing cells in embryos; mV-Wnt6 mRNA and TCF-dnFzd7-TM plasmid (with mRFP mRNA) injected into different blastomeres of Xenopus embryos at the four-cell stage; mVenus intensity on the cell membrane of mRFP-positive and mRFP-negative cells compared.

B1: mVenus-tagged Wnt6 (N-terminally tagged Wnt6) (ligand, UniProt P31287 1-129)
chain: QECKCHGLSGSCTFTTCWKKMPHFREVGDRLLERFNGAFKVMGGNDGKTIIPVGHNIKPPDKQDLIYSAESPDFCQANRKTGSPGTRGRVCNSTALDVGGCDLLCCGRGQREETVVVEENCLCRFHWCC
Consider B1, for which the binding entry in experiment [1] and in experiment [2] was “binds” each time.

These data come from PMC9363125.
